# “And” between values parts separate entries of the source, which are not always exact repeats. Equal entries are not always repeated. The shares of active, inactive and inconclusive entries below differ from those in the screen. For part of these data: A potency beside an inconclusive call is a rough fit, not a confirmed value. The source made the active and inactive calls. Unless noted, calls come from the whole dose curve.
# The chains behind the UniProt entries cited, without tags or fusion partners. Where a name states a change or a piece, a line headed by the entry shows the natural chain unless it says otherwise.
# UniProt P14416, whole entry, looked up: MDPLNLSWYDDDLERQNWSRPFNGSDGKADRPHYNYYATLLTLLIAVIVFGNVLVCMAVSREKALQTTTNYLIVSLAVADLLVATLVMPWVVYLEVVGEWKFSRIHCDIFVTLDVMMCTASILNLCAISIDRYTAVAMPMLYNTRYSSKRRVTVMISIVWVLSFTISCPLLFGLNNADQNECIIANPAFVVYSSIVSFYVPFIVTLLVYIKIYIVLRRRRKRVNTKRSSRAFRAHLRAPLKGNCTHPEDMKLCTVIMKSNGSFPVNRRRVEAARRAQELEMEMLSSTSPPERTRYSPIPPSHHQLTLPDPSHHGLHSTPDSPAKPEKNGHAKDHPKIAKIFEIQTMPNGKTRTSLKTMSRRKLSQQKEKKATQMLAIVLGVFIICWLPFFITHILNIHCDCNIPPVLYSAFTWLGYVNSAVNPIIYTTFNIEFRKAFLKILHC
# UniProt P28223, whole entry, looked up: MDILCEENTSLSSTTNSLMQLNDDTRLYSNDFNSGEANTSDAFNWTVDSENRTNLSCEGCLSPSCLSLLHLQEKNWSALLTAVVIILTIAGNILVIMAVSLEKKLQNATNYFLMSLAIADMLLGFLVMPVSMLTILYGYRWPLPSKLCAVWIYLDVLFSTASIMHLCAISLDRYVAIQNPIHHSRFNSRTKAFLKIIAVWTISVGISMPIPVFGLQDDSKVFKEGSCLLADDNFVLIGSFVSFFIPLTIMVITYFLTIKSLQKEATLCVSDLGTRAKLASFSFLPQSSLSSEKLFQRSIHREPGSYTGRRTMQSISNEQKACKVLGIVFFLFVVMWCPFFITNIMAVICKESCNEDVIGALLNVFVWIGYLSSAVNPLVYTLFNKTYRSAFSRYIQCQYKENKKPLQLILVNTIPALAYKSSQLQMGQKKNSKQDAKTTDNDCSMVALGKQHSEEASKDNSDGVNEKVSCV
# UniProt P11229: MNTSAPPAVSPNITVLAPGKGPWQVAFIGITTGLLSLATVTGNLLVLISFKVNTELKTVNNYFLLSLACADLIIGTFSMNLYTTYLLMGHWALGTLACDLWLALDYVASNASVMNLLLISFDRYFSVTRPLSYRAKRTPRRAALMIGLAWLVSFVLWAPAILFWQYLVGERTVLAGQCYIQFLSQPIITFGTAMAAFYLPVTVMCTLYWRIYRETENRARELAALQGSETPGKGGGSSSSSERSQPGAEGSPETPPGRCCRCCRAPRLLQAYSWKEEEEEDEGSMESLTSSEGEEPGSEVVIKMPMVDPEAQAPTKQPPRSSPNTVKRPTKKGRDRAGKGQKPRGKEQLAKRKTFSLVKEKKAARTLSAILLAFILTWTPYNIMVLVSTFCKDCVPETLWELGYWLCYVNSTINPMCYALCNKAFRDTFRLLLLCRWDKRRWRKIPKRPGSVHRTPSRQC
# Tests used:
# [1] = p53 small molecule agonists, cell-based qHTS assay with human liver microsomes (AID 1963577); conditions: HCT-116 p53RE-bla with human liver microsomes, ratio, 16 h; activation: at 66 µM (top of the series) unless noted; note: potency is the fitted concentration of half-maximal effect;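 for activation: p53 response element beta-lactamase reporter cells with liver microsomes plus NADPH; % is set by controls: 0 for no effect and ±100 for the full control effect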
# Method in brief: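 16 h, 37 C exposure of p53RE-bla cells to compounds with human liver microsomes and NADPH (0.5 mg/mL final each); detection via LiveBLAzer mixture, 2 h dark at room temperature.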
# [2] = cAMP Responsive Elements (CRE) small molecule agonists, cell-based qHTS assay (AID 1963590); conditions: CRE-bla HEK293T, beta-lactamase FRET ratio, 3 h; activation: at 92.4 µM (top of the series) unless noted; note: potency is the fitted concentration of half-maximal effect
# Method in brief: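 HEK 293T cells stably bearing CRE-bla were plated at 2,000 cells per well and rested 18 h. Compounds, positive controls or DMSO were added for 3 h at 37 C. LiveBLAzer B/G substrate was then loaded for 2 h at room temperature.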
# [3] = cAMP Responsive Elements (CRE) small molecule antagonists, cell-based qHTS assay (AID 1963591; active = well fitted inhibition curve with a large enough effect in the signal ratio in the repeat runs, not every such curve was filed as active; inconclusive = weak or mixed curves, or effect the other way; the % refers to the signal ratio; note: potency is the fitted concentration of half-maximal effect; for activity change, negative = inhibition: % is set by controls: 0 for no effect and ±100 for the full control effect); conditions: CRE-bla HEK293T, beta-lactamase FRET ratio
# Method in brief: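 First, CRE-bla HEK293T cells settled 18 h at 37 C. Next, compound and 0.25 uM final NKH477 were applied for 3 h. Last, LiveBLAzer B/G substrate was loaded for 2 h at room temperature.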
# [4] = molecular target: D(2) dopamine receptor (Homo sapiens) (UniProt P14416); experiment: Dopamine D2 receptor (DRD2) small molecule agonists, cell-based qHTS assay (AID 1963594); conditions: HEK293-DRD2 cAMP HTRF, agonist mode, 30 min; activation: at 92.4 µM (top of the series) unless noted; note: nearly all actives have a fitted effect of over 35% in size; note: potency is the fitted concentration of half-maximal effect
# Method in brief: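 cAMP accumulation in DRD2-HEK293 cells measured by HTRF after 1 h detection; compounds added 10 min before NKH477 (200nM […]) forskolin-analogue stimulation, 30 min at room temperature, with Ro20-1724 present at 0.1 mM final.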
# [5] = molecular target: Beta-2 adrenergic receptor (Homo sapiens) (UniProt P07550); experiment: Adrenergic beta2 receptor (ADRB2) small molecule agonists, cell-based qHTS assay (AID 1963593); conditions: CHO-ADRB2 cells, cAMP HTRF, 30 min; note: potency is the fitted concentration of half-maximal effect;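 for activation: CHO cells stably overexpressing human ADRB2; % is set by controls: 0 for no effect and ±100 for the full control effect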
# Method in brief: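 CHO cells stably over-expressing ADRB2 were plated overnight at 37C, then dosed with compounds plus a stimulation mix containing 100uM IBMX and 25uM Ro-20-1724 for 0.5hr at room temperature. cAMP was measured by HTRF competition, 1hr.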
# [6] = molecular target: 5-hydroxytryptamine receptor 2A (Homo sapiens) (UniProt P28223); experiment: 5-hydroxytryptamine receptor 2A (HTR2A) small molecule agonists, cell-based qHTS assay (AID 1963587); conditions: HTR2A-CHO cells, calcium flux fluorescence, agonist mode; series mostly up to 76.8 µM; note: potency is the fitted concentration of half-maximal effect; nearly all actives have a fitted effect of over 30% in size
# Method in brief: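 Kinetic calcium-flux fluorescence (2 min, 1 sec intervals) after compound addition in agonist mode. HTR2A-CHO cells were cultured 18 h, then dye-loaded 1 h at 37 C.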
# [7] = molecular target: Beta-2 adrenergic receptor (Homo sapiens) (UniProt P07550); experiment: Adrenergic beta2 receptor (ADRB2) small molecule antagonists, cell-based qHTS assay (AID 1963592); conditions: CHO-ADRB2 cells, isoproterenol-stimulated cAMP HTRF ratio, 0.5 h; activity change, negative = inhibition: at 92.4 µM (top of the series) unless noted; note: nearly all actives have a fitted effect of over 50% in size; note: potency is the fitted concentration of half-maximal effect; for activity change, negative = inhibition: % is set by controls: 0 for no effect and ±100 for the full control effect
# Method in brief: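 Assay format: CHO-ADRB2 cells, 18-20hr seeding at 37C/5% CO2, then compound plus 1nM isoproterenol agonist mix for 0.5hr RT. Homogeneous time-resolved fluorescence cAMP detection after 1hr, expressed as 665/615 nm ratio.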
# [8] = molecular target: Muscarinic acetylcholine receptor M1 (Homo sapiens) (UniProt P11229); experiment: Cholinergic receptor muscarinic 1 (CHRM1) small molecule antagonists, cell-based qHTS assay (AID 1963588); conditions: CHRM1-CHO antagonist mode, calcium flux fluorescence; series mostly up to 61.5 µM; note: % is set by controls: 0 for no effect and ±100 for the full control effect; nearly all actives have a fitted effect of over 40% in size
# Method in brief: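 Compounds were tested at 15 concentrations in three independent runs. Dye-loaded CHRM1-CHO cells were exposed 5 min at room temperature before stimulation by acetylcholine added at 50nM. Intracellular calcium was read kinetically on FDSS for 3 min.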
# [9] = activity change, negative = inhibition: at 92.4 µM (top of the series) unless noted
# [10] = activation: at 92.4 µM (top of the series) unless noted
smiles,measurement,setting,value
CCCCCC=CCC=CCCCCCCCC(=O)OCC,Potency,[1],"inconclusive: 17.8 µM [fluorescent, partial curve]"
same,Potency,[2],"inconclusive: 23.7 µM [rising, partial curve]"
same,"activity change, negative = inhibition",[3]; [9],inconclusive: 14.7% [at 42.4 µM]
same,Potency,[4],"inconclusive: 21.1 µM [falling, partial curve]"
CCCCC(=O)O[C@]1(C(=O)CO)CC[C@H]2[C@@H]3CCC4=CC(=O)CC[C@]4(C)[C@H]3[C@@H](O)C[C@@]21C,Potency,[1],inactive
same,Potency,[2],"inconclusive: 29.8 µM [rising, single point]"
same,Potency,[3]; [9],"inconclusive: 29.8 µM [fluorescent, partial curve, poor fit]"
same,Potency,[5]; [10],inactive
CCCCCCC=O,Potency,[1],inactive
same,Potency,[6],"inconclusive: 28.1 µM [activator, partial curve]"
same,Potency,[3]; [9],inactive
same,Potency,[7],inactive
same,activation,[5]; [10],inconclusive: 12.6%
Oc1cccc(O)c1,Potency,[1],"inconclusive: 40.8 µM [fluorescent, partial curve, poor fit]"
same,Potency,[2],inactive
same,"activity change, negative = inhibition",[3]; [9],inconclusive: 0.565% [at 42.4 µM]
same,"activity change, negative = inhibition",[3]; at 92.4 µM (top of the series),inactive: -0.0043% and inactive: -8.55%
same,activation,[5]; at 42.5 µM (top of the series),inconclusive: 8.74%
same,activation,[5]; at 92.4 µM (top of the series),inconclusive: -52.1% and inconclusive: 3.46%
C1OCOCO1,Potency,[1],inactive
same,Potency,[8],inactive
same,Potency,[5]; [10],"inconclusive: 0.224 µM [inhibitor, single point]"
CC(=O)O[C@]1(C(C)=O)CC[C@H]2[C@@H]3C[C@H](C)C4=CC(=O)CC[C@]4(C)[C@H]3CC[C@@]21C,Potency,[1],"inconclusive: 17.8 µM [rising, partial curve, poor fit]"
same,Potency,[2],"inconclusive: 21.7 µM [rising, partial curve] and inconclusive: 26.6 µM [rising, partial curve]"
same,Potency,[3]; [9],"inconclusive: 17.2 µM [fluorescent, partial curve] and inconclusive: 10.6 µM [activator, full curve, poor fit]"
same,Potency,[5]; [10],"inconclusive: 2.73 µM [inhibitor, full curve, poor fit]"
CCCCNc1c(C(=O)OCC)c(C)nc2c1cnn2CC,Potency,[1],inactive
same,Potency,[2],"inconclusive: 26.6 µM [rising, partial curve]"
same,Potency,[3]; [9],"inconclusive: 26.6 µM [fluorescent, single point]"
same,Potency,[5]; [10],inactive
C/C=C/c1ccc(O)c(OC)c1,Potency,[1],"inconclusive: 57.6 µM [rising, single point]"
same,"activity change, negative = inhibition",[3]; [9],inconclusive: 18.9%
same,activation,[5]; [10],inconclusive: -16.6%
same,activation,[4],inconclusive: -3.33%
CC1=C(/C=C/C(C)=C/C=C/C(C)=C/CO)C(C)(C)CCC1,Potency,[1],"inconclusive: 15.3 µM [rising, full curve]"
same,Potency,[3]; [9],inconclusive: 64.4 µM [fluorescent]
same,"activity change, negative = inhibition",[3]; [9],inconclusive: 1.41%
same,activation,[5]; [10],inconclusive: -51.3%
CCOc1cc(NC(C)=O)ccc1C(=O)OC,Potency,[1],inactive
same,Potency,[3]; [9],inactive
O=C1NCCN1,activation,[1],inconclusive: 20.6%
same,Potency,[2],inactive
same,activation,[5]; [10],inconclusive: -47.2%
CCN1CCCC1=O,Potency,[1],"inconclusive: 19.9 µM [fluorescent, partial curve, poor fit]"
same,Potency,[2],inactive
same,Potency,[5]; [10],inactive
Cc1cc2cc3c(C)cc(=O)oc3c(C)c2o1,activation,[1],inconclusive: 4.94% [at 30.3 µM]
same,Potency,[3]; [9],inactive
same,activation,[5]; [10],inconclusive: 0.0119% [at 42.5 µM]
C=CCCCCCCCCC(=O)O,Potency,[1],"inconclusive: 45.8 µM [rising, single point]"
same,"activity change, negative = inhibition",[3]; [9],inconclusive: 20%
same,Potency,[7],"inconclusive: 33.5 µM [inhibitor, partial curve, poor fit]"
CC(=O)c1ccc2c(c1)[C@H](NC(=O)c1ccc(F)cc1)[C@@H](O)C(C)(C)O2,Potency,[1],"inconclusive: 43.1 µM [rising, partial curve, poor fit]"
same,Potency,[3]; [9],inactive
same,Potency,[5]; [10],"inconclusive: 1.82 µM [falling, partial curve, poor fit]"
CC(=O)Oc1ccc2c(c1)CC[C@@H]1[C@@H]2CC[C@]2(C)[C@@H](O)CC[C@@H]12,Potency,[1],"inconclusive: 11.2 µM [rising, partial curve, poor fit]"
same,Potency,[3]; [9],inactive
CC(C)N(C)C,Potency,[1],"inconclusive: 51.1 µM [activator, single point]"
same,Potency,[2],inactive
same,Potency,[5]; [10],"inconclusive: 1.08 µM [inhibitor, partial curve, poor fit]"

# Rewritten as tab-separated lines: part of the list above
smiles	measurement	setting	value
Oc1cccc(O)c1	Potency	[2]	inactive
O=C1NCCN1	Potency	[2]	inactive

# Reformatted tab-delimited: entries from further up
smiles	measurement	setting	value
C1OCOCO1	Potency	[8]	inactive
O=C1NCCN1	activation	[1]	inconclusive: 20.6%

# Two neighbouring entries already listed, quoted:
smiles,measurement,setting,value
CC1=C(/C=C/C(C)=C/C=C/C(C)=C/CO)C(C)(C)CCC1,Potency,[3]; [9],inconclusive: 64.4 µM [fluorescent]
same,"activity change, negative = inhibition",[3]; [9],inconclusive: 1.41%

# From PubChem BioAssay (Tox21)
